Data: the supplement of paper PMC12819154, “High-throughput peptide-centric local stability assay extends protein–ligand identification to membrane proteins, tissues and bacteria” (Nature Structural & Molecular Biology, 2025)
This is one part of the list. Most entries show no effect beyond the scatter of the controls.

Sequences of proteins named here, by UniProt entry; tags and fusion partners are left off. A change or cut given only in a name is not applied to a line headed by its entry.
UniProt O94903: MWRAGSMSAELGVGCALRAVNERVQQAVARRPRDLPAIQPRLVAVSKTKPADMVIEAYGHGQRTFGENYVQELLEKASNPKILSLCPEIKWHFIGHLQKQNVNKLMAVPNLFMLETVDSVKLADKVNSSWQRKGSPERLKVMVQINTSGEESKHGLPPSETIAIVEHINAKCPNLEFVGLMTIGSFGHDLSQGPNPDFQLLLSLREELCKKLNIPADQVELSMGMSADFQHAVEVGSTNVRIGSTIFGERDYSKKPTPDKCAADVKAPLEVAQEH
UniProt O75955: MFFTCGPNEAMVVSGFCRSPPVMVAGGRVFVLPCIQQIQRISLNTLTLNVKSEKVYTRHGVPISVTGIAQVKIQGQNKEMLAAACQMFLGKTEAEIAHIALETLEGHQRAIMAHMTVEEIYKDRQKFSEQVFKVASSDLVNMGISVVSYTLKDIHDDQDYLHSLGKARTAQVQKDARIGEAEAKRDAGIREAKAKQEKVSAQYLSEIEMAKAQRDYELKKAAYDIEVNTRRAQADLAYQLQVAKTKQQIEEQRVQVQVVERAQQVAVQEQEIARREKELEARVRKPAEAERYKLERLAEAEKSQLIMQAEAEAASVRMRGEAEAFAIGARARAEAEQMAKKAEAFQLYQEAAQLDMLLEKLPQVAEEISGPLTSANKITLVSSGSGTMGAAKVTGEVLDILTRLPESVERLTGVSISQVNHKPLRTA
UniProt O94941: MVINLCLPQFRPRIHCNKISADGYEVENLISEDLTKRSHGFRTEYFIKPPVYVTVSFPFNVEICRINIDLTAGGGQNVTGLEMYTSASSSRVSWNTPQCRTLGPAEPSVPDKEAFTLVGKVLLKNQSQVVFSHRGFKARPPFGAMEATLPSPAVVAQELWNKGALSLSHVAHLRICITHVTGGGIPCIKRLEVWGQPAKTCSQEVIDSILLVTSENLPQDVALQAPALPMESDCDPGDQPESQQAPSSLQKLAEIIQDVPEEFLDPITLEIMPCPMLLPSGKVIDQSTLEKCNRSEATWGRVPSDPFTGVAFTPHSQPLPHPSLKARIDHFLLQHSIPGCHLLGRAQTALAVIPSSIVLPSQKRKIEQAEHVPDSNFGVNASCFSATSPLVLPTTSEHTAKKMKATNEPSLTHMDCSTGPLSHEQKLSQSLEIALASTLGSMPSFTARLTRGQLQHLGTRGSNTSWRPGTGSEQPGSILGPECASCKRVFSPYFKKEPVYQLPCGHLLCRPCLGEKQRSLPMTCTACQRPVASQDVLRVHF
UniProt O75554: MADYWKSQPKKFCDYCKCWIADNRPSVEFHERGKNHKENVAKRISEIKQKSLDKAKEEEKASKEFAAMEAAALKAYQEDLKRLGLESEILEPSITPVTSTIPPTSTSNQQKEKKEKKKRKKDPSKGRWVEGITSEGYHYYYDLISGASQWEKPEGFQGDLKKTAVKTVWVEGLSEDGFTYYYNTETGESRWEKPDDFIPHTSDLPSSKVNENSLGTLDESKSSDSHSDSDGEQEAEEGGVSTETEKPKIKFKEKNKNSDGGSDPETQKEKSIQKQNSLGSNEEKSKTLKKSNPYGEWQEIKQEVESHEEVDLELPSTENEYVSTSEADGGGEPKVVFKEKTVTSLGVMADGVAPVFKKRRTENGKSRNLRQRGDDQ
UniProt O75817: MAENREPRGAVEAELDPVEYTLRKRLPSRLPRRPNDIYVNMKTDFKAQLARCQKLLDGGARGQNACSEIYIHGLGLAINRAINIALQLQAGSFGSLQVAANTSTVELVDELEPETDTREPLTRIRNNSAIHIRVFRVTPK
UniProt O94888: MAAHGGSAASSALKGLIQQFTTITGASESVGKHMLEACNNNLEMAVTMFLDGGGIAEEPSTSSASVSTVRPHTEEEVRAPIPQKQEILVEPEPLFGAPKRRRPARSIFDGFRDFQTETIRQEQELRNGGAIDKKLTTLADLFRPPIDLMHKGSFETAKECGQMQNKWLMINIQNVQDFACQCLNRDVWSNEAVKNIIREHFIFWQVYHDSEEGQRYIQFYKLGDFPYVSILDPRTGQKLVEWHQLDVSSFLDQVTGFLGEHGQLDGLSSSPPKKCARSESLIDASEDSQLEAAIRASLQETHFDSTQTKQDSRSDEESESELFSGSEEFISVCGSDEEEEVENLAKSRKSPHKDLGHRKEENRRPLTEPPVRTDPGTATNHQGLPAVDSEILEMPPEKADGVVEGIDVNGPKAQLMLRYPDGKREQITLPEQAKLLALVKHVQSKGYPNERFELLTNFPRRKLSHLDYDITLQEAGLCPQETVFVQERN
UniProt O95567: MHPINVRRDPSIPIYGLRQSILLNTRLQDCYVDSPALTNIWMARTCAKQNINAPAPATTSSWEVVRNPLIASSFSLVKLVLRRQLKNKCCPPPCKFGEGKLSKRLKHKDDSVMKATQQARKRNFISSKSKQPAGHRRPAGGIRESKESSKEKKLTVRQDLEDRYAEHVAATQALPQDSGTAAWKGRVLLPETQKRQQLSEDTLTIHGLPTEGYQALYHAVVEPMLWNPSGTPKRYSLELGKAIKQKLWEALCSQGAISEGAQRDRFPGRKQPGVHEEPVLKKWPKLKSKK
UniProt O75683: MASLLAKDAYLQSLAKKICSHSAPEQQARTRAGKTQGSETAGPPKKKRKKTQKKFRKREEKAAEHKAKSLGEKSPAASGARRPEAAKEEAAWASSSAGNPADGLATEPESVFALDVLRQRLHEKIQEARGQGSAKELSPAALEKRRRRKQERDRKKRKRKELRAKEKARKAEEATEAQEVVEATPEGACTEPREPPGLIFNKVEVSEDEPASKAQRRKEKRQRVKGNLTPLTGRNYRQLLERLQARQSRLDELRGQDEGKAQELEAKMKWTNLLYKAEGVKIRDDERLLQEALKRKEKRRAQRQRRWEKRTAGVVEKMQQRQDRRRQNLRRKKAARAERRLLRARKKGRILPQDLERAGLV
UniProt O95070: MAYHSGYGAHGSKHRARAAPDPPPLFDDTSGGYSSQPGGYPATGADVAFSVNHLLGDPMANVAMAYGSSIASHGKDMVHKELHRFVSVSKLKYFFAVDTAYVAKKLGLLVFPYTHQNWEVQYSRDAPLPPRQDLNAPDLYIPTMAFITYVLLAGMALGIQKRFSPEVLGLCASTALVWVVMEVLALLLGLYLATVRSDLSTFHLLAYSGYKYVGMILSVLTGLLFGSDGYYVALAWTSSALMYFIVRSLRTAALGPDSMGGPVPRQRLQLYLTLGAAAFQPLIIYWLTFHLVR
UniProt O95202: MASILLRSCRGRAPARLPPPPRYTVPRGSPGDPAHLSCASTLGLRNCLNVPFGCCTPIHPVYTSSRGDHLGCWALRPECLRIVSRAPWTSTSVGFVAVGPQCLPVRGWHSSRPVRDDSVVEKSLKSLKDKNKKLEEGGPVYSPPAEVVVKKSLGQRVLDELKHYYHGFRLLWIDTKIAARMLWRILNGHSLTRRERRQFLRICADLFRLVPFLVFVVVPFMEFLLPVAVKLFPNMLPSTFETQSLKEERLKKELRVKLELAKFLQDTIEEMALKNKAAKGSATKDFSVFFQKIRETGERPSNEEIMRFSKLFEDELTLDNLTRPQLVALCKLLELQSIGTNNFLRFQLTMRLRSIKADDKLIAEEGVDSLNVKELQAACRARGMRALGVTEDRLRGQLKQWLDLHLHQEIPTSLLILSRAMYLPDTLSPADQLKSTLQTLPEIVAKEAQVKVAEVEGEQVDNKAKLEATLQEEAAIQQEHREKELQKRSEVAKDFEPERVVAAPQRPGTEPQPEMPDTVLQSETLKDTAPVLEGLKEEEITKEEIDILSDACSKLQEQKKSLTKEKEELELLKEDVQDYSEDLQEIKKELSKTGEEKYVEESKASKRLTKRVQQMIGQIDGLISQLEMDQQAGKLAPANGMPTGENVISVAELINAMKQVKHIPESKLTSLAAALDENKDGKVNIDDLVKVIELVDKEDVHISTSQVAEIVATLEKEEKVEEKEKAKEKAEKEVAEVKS

The targets below were run with CN[C@@H]1C[C@H]2O[C@@](C)([C@@H]1OC)n1c3ccccc3c3c4c(c5c6ccccc6n2c5c31)C(=O)NC4 [staurosporine] (assay: log2 fold change of tryptic peptide abundance, ligand vs vehicle (limited proteolysis) (log2 ratio); higher = more trypsin-susceptible (destabilized)). Conditions: ligand concentration: 20 uM; sample: K562 cleared lysate; digestion: 4 min, 22 C (HT-PELSA RT4min, Orbitrap Astral).
Work on “UniProt O94903 (peptide sequence: IGSTIFGERDYSK, peptide start residue: 242)” yielded a log2 fold change of 0.18.
With “FLOT1 (peptide sequence: SQLIMQAEAEAASVR, peptide start residue: 303) (UniProt O75955)” the log2 fold change was -0.425.
Work on “UBOX5 (peptide sequence: VIDQSTLEK, peptide start residue: 283) (UniProt O94941)” yielded a log2 fold change of 0.267.
Target “WBP4 (peptide sequence: KFCDYCK, peptide start residue: 11) (UniProt O75554)” has a log2 fold change of 0.346.
In the case of “TRIM16 (peptide sequence: SVLVSVSEVK, peptide start residue: 203) (UniProt O95361)”, the log2 fold change is reported as 0.376.
Work on “POP7 (peptide sequence: GAVEAELDPVEYTLRK, peptide start residue: 9) (UniProt O75817)” yielded a log2 fold change of 0.306.
Target “UBXN7 (peptide sequence: EENRRPLTEPPVR, peptide start residue: 360) (UniProt O94888)” has a log2 fold change of -0.865.
With “UniProt O95567 (peptide sequence: NPLIASSFSLVK, peptide start residue: 67)” the log2 fold change was 0.371.
With “SURF6 (peptide sequence: TQGSETAGPPK, peptide start residue: 35) (UniProt O75683)” the log2 fold change was -0.115.
Target “YIF1A (peptide sequence: AYHSGYGAHGSK, peptide start residue: 2) (UniProt O95070)” has a log2 fold change of -0.00812.
In the case of “LETM1 (peptide sequence: STLQTLPEIVAK, peptide start residue: 435) (UniProt O95202)”, the log2 fold change is reported as -0.311.
